In article PMC8045403:
No constants are given. Whether binding was seen depends on the method and setting. Binding seen in cells or lysates may run through a third protein. Some entries that bind do so weakly or less than the wild type.

Sequences of proteins named here, by UniProt entry; tags and fusion partners are left off.
UniProt Q63746: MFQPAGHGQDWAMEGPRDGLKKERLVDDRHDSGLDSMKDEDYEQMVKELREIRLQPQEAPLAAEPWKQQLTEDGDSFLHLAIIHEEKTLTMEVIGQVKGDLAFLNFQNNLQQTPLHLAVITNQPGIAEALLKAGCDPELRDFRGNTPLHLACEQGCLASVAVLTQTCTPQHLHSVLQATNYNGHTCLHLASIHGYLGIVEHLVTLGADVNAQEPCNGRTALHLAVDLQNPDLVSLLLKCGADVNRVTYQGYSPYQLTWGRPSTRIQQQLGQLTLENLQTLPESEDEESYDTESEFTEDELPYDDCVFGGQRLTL
UniProt Q7TQN4: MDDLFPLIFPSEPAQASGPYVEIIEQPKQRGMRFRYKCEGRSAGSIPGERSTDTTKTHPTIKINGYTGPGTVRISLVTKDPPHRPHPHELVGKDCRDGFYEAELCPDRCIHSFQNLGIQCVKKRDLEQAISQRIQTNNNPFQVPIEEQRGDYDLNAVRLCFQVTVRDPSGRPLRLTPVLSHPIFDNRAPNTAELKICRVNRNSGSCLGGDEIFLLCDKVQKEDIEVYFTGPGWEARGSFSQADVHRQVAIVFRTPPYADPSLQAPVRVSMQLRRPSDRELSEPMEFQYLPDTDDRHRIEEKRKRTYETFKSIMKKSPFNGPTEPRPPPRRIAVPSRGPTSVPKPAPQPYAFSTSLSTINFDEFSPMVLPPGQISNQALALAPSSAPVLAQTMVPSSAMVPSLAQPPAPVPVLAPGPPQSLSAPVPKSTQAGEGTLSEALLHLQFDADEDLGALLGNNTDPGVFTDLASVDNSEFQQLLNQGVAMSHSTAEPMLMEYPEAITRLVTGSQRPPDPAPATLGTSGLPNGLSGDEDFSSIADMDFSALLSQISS

Biological target: NF-κB inhibitor alpha (IκB-α) (rat (endogenous in spinal dorsal horn)) (UniProt Q63746)
Experiment: co-IP; IP with IκB-α antibody from rat spinal dorsal horn lysate (300 μg protein, 4 °C overnight), magnetic beads, immunoblot with P65 antibody; rats treated with vehicle or oxaliplatin, with or without intraspinal AAV-MT2A-EGFP or AAV-EGFP

For “NF-κB p65 subunit (from UniProt Q7TQN4 1-550)”, the binding was “binds”.
